Results deposited as PubChem BioAssay AID1259405 (NCATS, 2018).

Screen: 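Silenced genes that increase secreted GFP made by CHO cells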 (primary screen)
System: Chinese hamster CHO-K1 ovary cells with stable secreted eGFP expression
Reagent: single siRNA against mouse genes, 0.8 pmol siRNA per well (2 µl of 400 nM stock)
Time to read-out: 3 days
Measurement: 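Per-well intracellular GFP measured by laser scanning cytometry, plus viability from ATP luminescence, each relative to plate median of non-targeting control wells, in %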
Reading the numbers: GFP, % of control: higher = more GFP per well, higher productivity; viability (ATP), % of control: higher = more viable cells (more ATP)
Rule for the call: 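a knock-down is called active if GFP reaches 120% or more of non-targeting control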
This is one part, drawn at random, of about 50,000 deposited reagents. About 4,000 of them (8%) count as active. 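Mouse siRNA library applied to hamster cells; one well for each siRNA.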 A number with no mark means an inactive call. The numbers tell different reagents against one gene apart.

Target gene	reagent	GFP, % of control	viability (ATP), % of control
Fam114a2	1	73.5	65.2
Fam114a2	2	122 (active)	88.9
Fam114a2	3	72.9	72.2
Stard8	1	100	55
Stard8	2	80.9	72.8
Stard8	3	93	85.1
Sema6a	1	84.7	48
Sema6a	2	80	85.9
Sema6a	3	66.6	93.9
Rpl10a	1	79.8	78.5
Rpl10a	2	73.3	50.4
Rpl10a	3	115	86.1
4930483J18Rik	1	122 (active)	56.7
4930483J18Rik	2	80.6	87.8
4930483J18Rik	3	84.7	88.3
Rp1	1	42.1	74.6
Rp1	2	73.5	93.3
Rp1	3	58	102
Plagl1	1	84.1	78.9
Plagl1	2	84	74.2
Plagl1	3	65	83.1
2010003K11Rik	1	81.6	87.8
2010003K11Rik	2	75.7	99
2010003K11Rik	3	53	72.4
Pde6b	1	82.8	90
Pde6b	2	41.2	46.3
Pde6b	3	45	85.5
Icmt	1	106	114
Icmt	2	131 (active)	98.5
Icmt	3	109	108
Crybb3	1	56.2	79.5
Crybb3	2	48.8	67
Crybb3	3	105	141
Pofut2	1	43.9	28.7
Pofut2	2	77.5	63.7
Pofut2	3	62.7	85.2
Cdk5rap2	1	46.9	67.4
Cdk5rap2	2	45.3	34.5
Cdk5rap2	3	76.7	101
Mei4	1	62.7	71.8
Mei4	2	58.6	74.1
Mei4	3	58.7	76.8
Plpp3	1	84.3	59.8
Plpp3	2	83.9	67.2
Plpp3	3	93.1	75.7
Slc4a10	1	137 (active)	108
Slc4a10	2	49.5	60.1
Slc4a10	3	64.8	68.5
Dnah11	1	67.3	90.3
Dnah11	2	90.5	92.9
Muc5b	1	78.4	113
Muc5b	2	67.4	57.5
Hhipl2	1	86.3	87
Hhipl2	2	80.6	79
Hhipl2	3	105	151
Tas2r116	1	54.6	59
Tas2r116	2	59.1	58.2
Tas2r116	3	61.2	97.6
Obox5	1	76.7	104
Obox5	2	84	65.6
Obox5	3	65.1	59.9
Nkx2-2	1	80	71.2
Nkx2-2	2	57.2	62.8
Nkx2-2	3	43.6	62.1
Serpina5	1	76.7	106
Serpina5	2	79.2	97.3
Serpina5	3	60.3	73.6
Casq2	1	113	112
Casq2	2	55.4	45
Vmn1r81	1	37.3	25.3
Vmn1r81	2	74.8	91
Vmn1r81	3	83.4	72.8
Cenpp	1	70.4	65.1
Cenpp	2	105	64.5
Cenpp	3	64.3	83
Wdr70	1	66.9	82.1
Wdr70	2	60.3	66.6
Wdr70	3	83.3	83.7
Dcaf8l	1	36.7	53.9
Dcaf8l	2	73.3	73.7
Dcaf8l	3	46.8	80.6
Sgo2a	1	130 (active)	137
Sgo2a	2	85.7	85.1
Sgo2a	3	76.5	101
